Laboratory results: PubChem BioAssay (EPA / NIEHS)
Inconclusive means that the source gave no clear call. Such entries were picked first, then a sample of the others. For part of these data: A potency beside an inconclusive call is a rough fit, not a confirmed value. More than one record can exist for a structure, and the calls need not agree. Activity calls are given as the source filed them. The calls were made as follows: active = hit-call score of the fitted dose curve at least 0.9, where 1 is the maximum; inconclusive = response in the unintended direction; inactive = score below 0.9.

By UniProt entry, the sequences of proteins in these tests, tags left out. Where a name states a change or a piece, a line headed by the entry shows the natural chain unless it says otherwise.
UniProt Q08E50: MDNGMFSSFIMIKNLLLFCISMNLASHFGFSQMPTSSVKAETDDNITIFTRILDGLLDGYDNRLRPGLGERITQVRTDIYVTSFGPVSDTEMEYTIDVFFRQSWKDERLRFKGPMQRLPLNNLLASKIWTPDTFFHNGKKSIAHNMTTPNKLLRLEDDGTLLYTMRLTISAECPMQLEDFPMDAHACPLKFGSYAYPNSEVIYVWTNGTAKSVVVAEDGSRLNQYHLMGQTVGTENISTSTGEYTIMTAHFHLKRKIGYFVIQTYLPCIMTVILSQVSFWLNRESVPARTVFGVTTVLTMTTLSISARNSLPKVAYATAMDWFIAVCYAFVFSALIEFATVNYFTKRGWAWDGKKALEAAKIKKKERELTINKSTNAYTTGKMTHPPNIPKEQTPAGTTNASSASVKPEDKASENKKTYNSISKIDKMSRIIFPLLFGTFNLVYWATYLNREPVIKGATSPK
UniProt P30560, whole entry, looked up: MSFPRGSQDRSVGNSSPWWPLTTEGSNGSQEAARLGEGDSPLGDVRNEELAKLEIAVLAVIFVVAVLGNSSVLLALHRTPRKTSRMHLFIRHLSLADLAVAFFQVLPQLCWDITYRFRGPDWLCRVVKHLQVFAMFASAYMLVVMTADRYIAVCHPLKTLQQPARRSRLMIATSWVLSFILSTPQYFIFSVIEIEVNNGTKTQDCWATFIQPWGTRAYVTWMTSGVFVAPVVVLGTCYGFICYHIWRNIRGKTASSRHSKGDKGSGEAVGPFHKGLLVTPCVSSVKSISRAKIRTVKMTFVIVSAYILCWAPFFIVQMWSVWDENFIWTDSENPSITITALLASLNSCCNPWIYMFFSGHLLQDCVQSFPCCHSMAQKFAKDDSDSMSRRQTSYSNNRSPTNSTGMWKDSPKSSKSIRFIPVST
UniProt Q05941, whole entry, looked up: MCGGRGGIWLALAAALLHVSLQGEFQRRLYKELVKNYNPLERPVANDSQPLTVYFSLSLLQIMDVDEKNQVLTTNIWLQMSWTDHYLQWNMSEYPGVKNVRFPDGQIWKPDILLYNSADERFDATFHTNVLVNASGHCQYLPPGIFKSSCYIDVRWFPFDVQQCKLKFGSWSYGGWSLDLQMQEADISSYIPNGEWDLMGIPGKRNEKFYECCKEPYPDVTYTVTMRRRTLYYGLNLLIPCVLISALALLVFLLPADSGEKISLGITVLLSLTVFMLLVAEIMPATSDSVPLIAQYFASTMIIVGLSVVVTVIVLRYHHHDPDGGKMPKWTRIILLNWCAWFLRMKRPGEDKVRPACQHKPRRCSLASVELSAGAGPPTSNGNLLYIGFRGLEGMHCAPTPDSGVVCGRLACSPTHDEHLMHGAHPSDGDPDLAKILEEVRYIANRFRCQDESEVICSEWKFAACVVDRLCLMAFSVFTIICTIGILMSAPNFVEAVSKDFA
UniProt Q01717: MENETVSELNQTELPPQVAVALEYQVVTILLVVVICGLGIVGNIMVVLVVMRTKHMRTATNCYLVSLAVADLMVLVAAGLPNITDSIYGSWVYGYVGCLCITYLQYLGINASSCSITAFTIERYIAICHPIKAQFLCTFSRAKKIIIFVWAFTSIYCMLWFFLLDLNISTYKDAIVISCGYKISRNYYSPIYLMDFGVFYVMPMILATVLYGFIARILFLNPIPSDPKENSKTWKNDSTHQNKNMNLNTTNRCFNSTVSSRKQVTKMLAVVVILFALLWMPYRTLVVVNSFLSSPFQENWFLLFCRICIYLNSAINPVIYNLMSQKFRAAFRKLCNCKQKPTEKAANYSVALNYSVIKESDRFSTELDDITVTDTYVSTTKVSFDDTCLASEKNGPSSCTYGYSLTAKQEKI
UniProt P46098, whole entry, looked up: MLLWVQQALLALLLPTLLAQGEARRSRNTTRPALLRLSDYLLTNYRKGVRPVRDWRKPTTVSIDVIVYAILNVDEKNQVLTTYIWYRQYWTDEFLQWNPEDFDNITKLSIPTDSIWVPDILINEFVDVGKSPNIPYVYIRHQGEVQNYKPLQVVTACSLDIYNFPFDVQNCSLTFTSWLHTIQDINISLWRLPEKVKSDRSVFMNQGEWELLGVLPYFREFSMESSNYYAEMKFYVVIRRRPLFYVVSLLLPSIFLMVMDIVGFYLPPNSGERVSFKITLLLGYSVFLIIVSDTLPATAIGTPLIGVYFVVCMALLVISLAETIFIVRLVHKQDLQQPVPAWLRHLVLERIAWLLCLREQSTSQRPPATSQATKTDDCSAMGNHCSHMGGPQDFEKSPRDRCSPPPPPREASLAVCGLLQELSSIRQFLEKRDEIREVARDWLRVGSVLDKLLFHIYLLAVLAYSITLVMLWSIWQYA
UniProt P10275: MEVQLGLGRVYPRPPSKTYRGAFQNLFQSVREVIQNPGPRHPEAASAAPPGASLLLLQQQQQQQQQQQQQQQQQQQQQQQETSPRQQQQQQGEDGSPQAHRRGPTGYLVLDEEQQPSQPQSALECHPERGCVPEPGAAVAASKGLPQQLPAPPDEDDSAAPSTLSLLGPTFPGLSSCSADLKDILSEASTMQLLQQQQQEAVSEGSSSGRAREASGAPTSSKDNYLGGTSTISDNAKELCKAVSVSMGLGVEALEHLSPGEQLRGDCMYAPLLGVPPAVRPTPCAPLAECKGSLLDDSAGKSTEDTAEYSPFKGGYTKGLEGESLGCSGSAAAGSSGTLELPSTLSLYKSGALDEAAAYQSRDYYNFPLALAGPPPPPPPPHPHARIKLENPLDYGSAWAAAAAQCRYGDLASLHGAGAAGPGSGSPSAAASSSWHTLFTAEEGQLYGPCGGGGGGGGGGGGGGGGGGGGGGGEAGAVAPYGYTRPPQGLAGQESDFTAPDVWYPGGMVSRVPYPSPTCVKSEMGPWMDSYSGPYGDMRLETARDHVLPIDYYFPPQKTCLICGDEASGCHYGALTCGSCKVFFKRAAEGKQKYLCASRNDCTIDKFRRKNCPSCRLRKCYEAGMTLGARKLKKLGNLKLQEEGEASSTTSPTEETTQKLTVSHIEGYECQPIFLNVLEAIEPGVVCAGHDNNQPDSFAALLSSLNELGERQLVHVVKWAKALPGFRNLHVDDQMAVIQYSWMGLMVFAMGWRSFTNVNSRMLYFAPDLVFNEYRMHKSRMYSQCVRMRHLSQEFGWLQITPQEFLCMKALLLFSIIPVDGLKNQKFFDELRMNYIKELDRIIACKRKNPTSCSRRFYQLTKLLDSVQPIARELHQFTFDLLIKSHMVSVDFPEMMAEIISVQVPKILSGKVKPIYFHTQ
UniProt Q14994: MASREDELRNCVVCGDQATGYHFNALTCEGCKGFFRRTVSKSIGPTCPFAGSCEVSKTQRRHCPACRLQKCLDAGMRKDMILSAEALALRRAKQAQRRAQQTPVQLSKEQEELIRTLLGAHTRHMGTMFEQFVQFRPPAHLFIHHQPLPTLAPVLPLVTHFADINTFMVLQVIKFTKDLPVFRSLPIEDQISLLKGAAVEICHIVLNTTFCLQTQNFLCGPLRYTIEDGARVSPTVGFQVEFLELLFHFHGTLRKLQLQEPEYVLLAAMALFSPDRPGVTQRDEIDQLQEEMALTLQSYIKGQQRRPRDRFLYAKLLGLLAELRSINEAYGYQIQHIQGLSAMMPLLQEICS
UniProt P33535, whole entry, looked up: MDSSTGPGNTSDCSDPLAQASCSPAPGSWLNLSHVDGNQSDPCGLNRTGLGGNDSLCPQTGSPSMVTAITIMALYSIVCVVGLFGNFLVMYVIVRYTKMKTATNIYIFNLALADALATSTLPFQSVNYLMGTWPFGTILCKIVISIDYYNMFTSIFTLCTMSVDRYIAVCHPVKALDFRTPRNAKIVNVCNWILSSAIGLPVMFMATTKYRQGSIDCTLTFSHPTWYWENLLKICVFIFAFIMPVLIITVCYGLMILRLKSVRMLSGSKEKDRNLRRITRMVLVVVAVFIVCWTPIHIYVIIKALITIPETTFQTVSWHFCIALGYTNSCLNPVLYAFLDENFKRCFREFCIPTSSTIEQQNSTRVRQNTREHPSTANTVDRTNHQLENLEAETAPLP
UniProt P62813: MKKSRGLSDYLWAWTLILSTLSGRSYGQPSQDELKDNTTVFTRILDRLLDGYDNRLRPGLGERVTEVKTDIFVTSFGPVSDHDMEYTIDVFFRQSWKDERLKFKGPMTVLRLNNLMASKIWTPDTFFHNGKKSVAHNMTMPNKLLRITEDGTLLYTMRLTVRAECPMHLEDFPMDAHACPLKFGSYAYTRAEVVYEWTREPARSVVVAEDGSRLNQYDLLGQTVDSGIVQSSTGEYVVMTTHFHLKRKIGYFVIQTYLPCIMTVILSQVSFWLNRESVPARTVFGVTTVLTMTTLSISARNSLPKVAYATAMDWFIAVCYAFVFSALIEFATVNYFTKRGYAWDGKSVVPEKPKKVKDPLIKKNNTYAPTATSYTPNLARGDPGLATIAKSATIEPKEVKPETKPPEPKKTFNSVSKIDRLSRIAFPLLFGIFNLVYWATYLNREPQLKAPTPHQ
UniProt P70606, whole entry, looked up: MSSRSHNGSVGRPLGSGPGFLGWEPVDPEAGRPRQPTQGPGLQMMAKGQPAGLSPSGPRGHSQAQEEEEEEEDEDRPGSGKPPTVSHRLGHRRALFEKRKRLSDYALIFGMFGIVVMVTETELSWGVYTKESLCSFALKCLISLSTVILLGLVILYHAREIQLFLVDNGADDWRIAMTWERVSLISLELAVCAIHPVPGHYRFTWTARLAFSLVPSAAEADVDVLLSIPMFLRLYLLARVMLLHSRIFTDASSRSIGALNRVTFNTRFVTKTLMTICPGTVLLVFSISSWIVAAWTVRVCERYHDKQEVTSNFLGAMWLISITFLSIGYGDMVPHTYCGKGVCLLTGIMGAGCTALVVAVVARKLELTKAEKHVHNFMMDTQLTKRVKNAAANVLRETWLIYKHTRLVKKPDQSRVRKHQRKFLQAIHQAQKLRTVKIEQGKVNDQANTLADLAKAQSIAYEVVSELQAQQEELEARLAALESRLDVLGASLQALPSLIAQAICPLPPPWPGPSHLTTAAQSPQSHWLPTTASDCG
UniProt Q12809: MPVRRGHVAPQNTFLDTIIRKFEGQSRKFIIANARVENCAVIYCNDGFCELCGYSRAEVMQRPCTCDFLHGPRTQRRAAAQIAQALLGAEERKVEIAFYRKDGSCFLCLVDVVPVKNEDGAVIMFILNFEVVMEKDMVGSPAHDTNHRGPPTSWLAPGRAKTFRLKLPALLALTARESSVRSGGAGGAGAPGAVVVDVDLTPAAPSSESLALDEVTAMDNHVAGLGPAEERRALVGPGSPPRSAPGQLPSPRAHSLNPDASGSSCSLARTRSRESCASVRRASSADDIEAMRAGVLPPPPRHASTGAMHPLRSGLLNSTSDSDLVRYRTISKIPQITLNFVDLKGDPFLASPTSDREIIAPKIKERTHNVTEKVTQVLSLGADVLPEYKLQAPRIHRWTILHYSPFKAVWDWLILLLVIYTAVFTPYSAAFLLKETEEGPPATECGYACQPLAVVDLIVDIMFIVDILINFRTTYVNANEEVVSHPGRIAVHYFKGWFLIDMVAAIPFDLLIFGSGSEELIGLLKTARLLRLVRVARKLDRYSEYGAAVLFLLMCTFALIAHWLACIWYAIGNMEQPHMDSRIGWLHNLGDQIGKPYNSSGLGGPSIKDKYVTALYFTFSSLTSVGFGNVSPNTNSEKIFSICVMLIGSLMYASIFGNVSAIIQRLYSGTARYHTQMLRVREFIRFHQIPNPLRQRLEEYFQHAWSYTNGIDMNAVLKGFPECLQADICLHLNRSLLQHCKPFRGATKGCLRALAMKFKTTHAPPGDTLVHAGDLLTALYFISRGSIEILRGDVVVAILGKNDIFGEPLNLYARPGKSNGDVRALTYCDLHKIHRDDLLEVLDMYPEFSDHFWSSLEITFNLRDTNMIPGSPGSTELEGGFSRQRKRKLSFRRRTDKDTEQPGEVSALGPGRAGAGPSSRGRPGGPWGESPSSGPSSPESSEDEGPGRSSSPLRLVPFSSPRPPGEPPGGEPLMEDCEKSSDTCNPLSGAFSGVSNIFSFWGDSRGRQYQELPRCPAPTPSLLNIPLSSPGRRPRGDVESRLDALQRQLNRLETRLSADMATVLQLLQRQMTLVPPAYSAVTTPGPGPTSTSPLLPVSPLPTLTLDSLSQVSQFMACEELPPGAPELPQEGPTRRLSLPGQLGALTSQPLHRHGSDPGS

Columns and labels:
[1] = target: Voltage-dependent N-type calcium channel subunit alpha-1B (Rattus norvegicus) (UniProt Q02294); experiment: NVS_IC_rCaChN: NovaScreen (NVS) Ion Channel Assay for rat Calcium Channel, Type N (CaChN) (AID 2283317)
[2] = target: bovine Gamma-Aminobutyric Acid Type A Receptor BDZ, alpha 5 site (GABARa5), GABRA5 (gene 523515) (UniProt Q08E50); experiment: NVS_LGIC_bGABARa5: NovaScreen (NVS) Ligand-Gated Ion Channel Assay for bovine Gamma-Aminobutyric Acid Type A Receptor BDZ, alpha 5 site (GABARa5) (AID 2283323)
Summary of the method: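 Radioligand competitive displacement binding on bovine hippocampal membranes, read 1 hr after dosing by filter-based scintillation counting. Primary screen at 25 uM in duplicate; actives (e.g. ≥30% inhibition) then run in concentration-response up to 50 uM.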

[3] = target: rat Glutamate, NMDA Agonist Site (GluNMDA), Grin1 (gene 24408) (UniProt P35439); experiment: NVS_LGIC_rGluNMDA_Agonist: NovaScreen (NVS) Ligand-Gated Ion Channel Assay for rat Glutamate, NMDA Agonist Site (GluNMDA) (AID 2283327)
Summary of the method: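 Rat forebrain membranes, radioligand binding in the agonist-site protocol; 1 h after dosing; filter-based scintillation counting. Single-concentration duplicate screen at 25 uM, then concentration-response up to 50 uM for actives; gain-of-signal vs DMSO.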

[4] = target: rat Vasopressin 1 Receptor (V1), Avpr1a (gene 25107) (UniProt P30560); experiment: NVS_GPCR_rV1: NovaScreen (NVS) G Protein-Coupled Receptor Assay for rat Vasopressin 1 Receptor (V1) (AID 2283316)
Summary of the method: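 Radioligand binding on rat liver membranes, 1.5 h incubation, filter-based scintillation counting. Single 25 uM screen in duplicate; chemicals meeting threshold (e.g. 30% inhibition) run in concentration-response up to 50 uM.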

[5] = NVS_IC_rCaBTZCHL: NovaScreen (NVS) Ion Channel Assay for Calcium Channel, Type L, Benzothiazepine Site (CaBTZCHL) (AID 2283337)
Summary of the method: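 Radioligand displacement at the benzothiazepine site using rat cortical membranes; bound label measured by filtration and scintillation counting 1.5 h after dosing. Single-point 25 uM in duplicate, then concentration series; DMSO baseline.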

[6] = target: rat Neonicotinoid receptor (NNR), Chrna7 (gene 25302) (UniProt Q05941); experiment: NVS_LGIC_rNNR_BungSens: NovaScreen (NVS) Ligand-Gated Ion Channel Assay for rat Neonicotinoid receptor (NNR) (AID 2283315)
Summary of the method: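 Radioligand displacement binding on rat cortical membranes, 2.5 h incubation, filtration and scintillation counting. Loss of specific binding fitted relative to DMSO.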

[7] = target: rat Thyrotropin Releasing Hormone Receptor (TRH), Trhr (gene 25570) (UniProt Q01717); experiment: NVS_GPCR_rTRH: NovaScreen (NVS) G Protein-Coupled Receptor Assay for rat Thyrotropin Releasing Hormone Receptor (TRH) (AID 2283329);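 also: hit means lower bound tracer signal versus DMSO baseline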
Summary of the method: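 Test compounds are screened at 25 uM in duplicate against radioligand binding in rat forebrain membranes, with active pairs followed up over a concentration range. Detection uses filter-based radiodetection after a 4 h exposure.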

[8] = target: rat Glutamate, AMPA Site (AMPA), Gria1 (gene 50592) (UniProt P19490); experiment: NVS_LGIC_rAMPA: NovaScreen (NVS) Ligand-Gated Ion Channel Assay for rat Glutamate, AMPA Site (AMPA) (AID 2283324)
Summary of the method: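 Rat forebrain membranes; radioligand binding read 1 h after dosing by filtration and scintillation counting. Duplicate single-point screen at 25 uM, then concentration-response to 50 uM for threshold hits (e.g. 30% inhibition); loss of signal vs DMSO.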

[9] = target: human Serotonin, 5-Hydroxytryptamine Receptor 3 (5HT3), HTR3A (gene 3359) (UniProt P46098); experiment: NVS_LGIC_h5HT3: NovaScreen (NVS) Ligand-Gated Ion Channel Assay for human Serotonin, 5-Hydroxytryptamine Receptor 3 (5HT3) (AID 2283325)
Summary of the method: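 Radioligand displacement binding to human 5-HT3 from HEK293 membranes, read by filter-based scintillation counting after 1 h. Screen at 25 uM in duplicate; chemicals passing threshold were retested in concentration-response up to 50 uM.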

[10] = target: human Androgen Receptor (AR), AR (gene 367) (UniProt P10275); experiment: NVS_NR_hAR: NovaScreen (NVS) Nuclear Receptor Binding Assay for human Androgen Receptor (AR) (AID 2283332)
Summary of the method: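 Radioligand competitive binding, scintillation read-out, in cell-free extract from LnCAP, measured 20 h after dosing. Screened first in duplicate at 25 uM, then concentration series for actives; activity fitted against DMSO.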

[11] = target: human Constitutive Androstane Receptor (CAR), NR1I3 (gene 9970) (UniProt Q14994); experiment: NVS_NR_hCAR_Agonist: NovaScreen (NVS) Nuclear Receptor Binding Assay for human Constitutive Androstane Receptor Agonism (CAR) (AID 2283328)
Summary of the method: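 Cell-free TR-FRET binding readout with extracted human CAR protein, read 1 h after dosing. Gain of signal fitted against DMSO baseline. Single-concentration duplicates at 25 uM, then concentration-response up to 50 uM for actives.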

[12] = test system: NCBI gene 24521; experiment: NVS_IC_rKATPCh: NovaScreen (NVS) Ion Channel Assay for rat Potassium Channel, ATP-Sensitive (KATPCh) (AID 2283319)
Summary of the method: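 Rat cortical membranes; radioligand binding at ATP-sensitive K channel site, filter-based scintillation counting 2 h after dosing. Single-point duplicate screen at 25 uM, hits rerun in concentration-response up to 50 uM; loss of signal versus DMSO.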

[13] = target: rat Opioid Receptor, Non-selective Binding, Oprm1 (gene 25601) (UniProt P33535); experiment: NVS_GPCR_rOpiate_NonSelective: NovaScreen (NVS) G Protein-Coupled Receptor Assay for rat Opioid Receptor, Non-selective Binding (AID 2283318)
Summary of the method: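 Rat forebrain membranes, cell-free radioligand binding with filter-based scintillation counting, read 1.5 h after dosing. Primary screen in duplicate at 25 uM; actives retested in concentration series. Loss of signal versus DMSO baseline scored.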

[14] = target: rat Gamma-Aminobutyric Acid Type A Receptor, Non-Selective (GABAR-NonSelective), Gabra1 (gene 29705) (UniProt P62813); experiment: NVS_LGIC_rGABAR_NonSelective: NovaScreen (NVS) Ligand-Gated Ion Channel Assay for rat Gamma-Aminobutyric Acid Type A Receptor, Non-Selective (GABAR-NonSelective) (AID 2283326)
Summary of the method: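 Radioligand displacement on rat whole-brain extract, 1 h, filter scintillation readout; signal loss fitted versus DMSO. Primary screen in duplicate at 25 uM; hits (e.g. ≥30% inhibition) retested in concentration-response up to 50 uM.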

[15] = target: Small conductance calcium-activated potassium channel protein 1 (Rattus norvegicus) (UniProt P70606); experiment: NVS_IC_rKCaCh: NovaScreen (NVS) Ion Channel Assay for rat Potassium Channel, Ca2+ Act., VI (KCaCh) (AID 2283336)
Summary of the method: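 Radioligand binding to rat forebrain membranes, cell-free, read 1 hour after dosing by filter-based scintillation counting. Compounds first run in duplicate at 25 uM, actives then in concentration series; loss of signal vs DMSO indicates displacement.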

[16] = NVS_IC_rCaDHPRCh_L: NovaScreen (NVS) Ion Channel Assay for rat Calcium Channel, Type L, Dihydropyridine Site (CaDHPRCh_L) (AID 2283320)
Summary of the method: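 Radioligand binding to dihydropyridine site on rat cortical membranes, filter-based scintillation counting, 1 h after dosing. Screened in duplicate at 25 uM; actives rerun in concentration-response up to 50 uM. Loss of signal versus DMSO baseline.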

[17] = target: Voltage-gated inwardly rectifying potassium channel KCNH2 (Homo sapiens) (UniProt Q12809); experiment: NVS_IC_hKhERGCh: NovaScreen (NVS) Ion Channel Assay for human Potassium Channel ERG (KhERGCh) (AID 2283333)
Summary of the method: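 Cell-free radioligand competition binding on hERG protein extracted from CHO cells, read by filter-based scintillation counting 0.75 h after dosing. Primary screen at 25 uM in duplicate, actives followed in concentration series. Signal loss fitted versus DMSO.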

[18] = target: Sodium channel protein type 1 subunit alpha (Rattus norvegicus) (UniProt P04774); experiment: NVS_IC_rNaCh_site2: NovaScreen (NVS) Ion Channel Assay for rat Sodium Channel, Site 2 (NaCh) (AID 2283322);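 also: hit means loss of radioligand binding signal relative to DMSO so AC50 marks displacement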
Summary of the method: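 Membranes: rat forebrain. Format: competitive radioligand displacement, filter separation, scintillation readout, 1 h exposure. Primary screen in duplicate at 25 uM; actives retested in concentration series.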

SMILES: CC[C@H](C)[C@@H](C(=O)O)n1sc2ccccc2c1=O
- AC50 [1]: inconclusive: 1.14 µM
- AC50 [2]: inconclusive: 6.58 µM
- AC50 [3]: inconclusive: 25 µM

SMILES: CCC(C)N(C)C(=O)c1cc2ccccc2c(-c2ccccc2Cl)n1 (stereo not given)
- AC50 [4]: active: 7.4 µM
- outcome [2]: inactive
- AC50 [5]: active: 9.12 µM

SMILES: C[C@]12CC[C@@H]3c4ccc(O)cc4CC[C@H]3[C@@H]1CC[C@H]2O
- AC50 [6]: inconclusive: 0.366 µM
- AC50 [7]: inconclusive: 25 µM

SMILES: O=c1[nH]c2ccc(S(=O)CCN3CCC(Cc4ccc(F)cc4)CC3)cc2o1 (stereo not given)
- AC50 [1]: inconclusive: 10.6 µM
- outcome [3]: inactive

SMILES: CC(C)(c1ccc(O)cc1)c1ccc(O)cc1
- AC50 [8]: inconclusive: 0.362 µM
- outcome [9]: inactive
- outcome [10]: inactive
- outcome [5]: inactive

SMILES: O=C(O)C1(C(=O)Nc2ccc(Cl)cc2Cl)CC1
- AC50 [1]: inconclusive: 7.45 µM
- AC50 [7]: inconclusive: 1.34 µM

SMILES: CCCCOC(=O)c1ccc(O)cc1
- AC50 [1]: inconclusive: 0.0598 µM
- outcome [11]: inactive

SMILES: COC(=O)c1ccccc1C(=O)O
- AC50 [12]: active: 25 µM

SMILES: CCN(CC)CCNc1ccc(CNC=O)c2sc3ccc(OC)cc3c(=O)c12
- outcome [13]: inactive
- outcome [14]: inactive
- AC50 [15]: inconclusive: 25 µM
- AC50 [5]: active: 19.2 µM

SMILES: NS(=O)(=O)c1cc2c(cc1Cl)NCNS2(=O)=O
- AC50 [8]: inconclusive: 6.1 µM

SMILES: CC(=O)CC(C)(C)O
- AC50 [1]: inconclusive: 25 µM
- outcome [7]: inactive

SMILES: Cc1cc(CCN2CCN(c3nsc4ccccc34)CC2)cc2c1NC(=O)CC2(C)C
- outcome [8]: inactive
- AC50 [11]: inconclusive: 25 µM

SMILES: CCN(Cc1cccnc1)C(=O)c1cccc(Cl)c1[C@]1(C)C(=O)N(Cc2ccc(OC)cc2OC)c2ccc(Cl)cc21
- AC50 [16]: active: 5.48 µM
- AC50 [17]: inconclusive: 23.6 µM

SMILES: O=C1CCCC1
- AC50 [7]: inconclusive: 0.176 µM

SMILES: Oc1ccc2ccccc2c1N=Nc1ccccc1
- AC50 [2]: inconclusive: 0.0887 µM

SMILES: COCC(C)O (stereo not given)
- AC50 [16]: inconclusive: 0.334 µM
- AC50 [7]: inconclusive: 25 µM

SMILES: CCCCc1ccc2c(n1)[C@@H](c1ccc(OC)cc1C[C@H](C)C(=O)O)[C@H](C(=O)O)[C@H]2c1ccc2c(c1)OCO2
- AC50 [2]: active: 27.5 µM

SMILES: c1ccc(C(O[C@@H]2CCCN(CCc3ccc4c(c3)OCO4)C2)c2ccccc2)cc1
- outcome [2]: inactive

SMILES: C[C@]12CC[C@H]3C(=CCc4cc(O)ccc43)[C@@H]1CCC2=O
- outcome [7]: inactive

SMILES: O=C1CN(N=Cc2ccc([N+](=O)[O-])o2)C(=O)N1
- outcome [8]: inactive

SMILES: N=C(N)c1ccc(OCCCCCOc2ccc(C(=N)N)cc2)cc1
- outcome [12]: inactive
- outcome [14]: inactive

SMILES: NC(=O)N1c2ccccc2C=Cc2ccccc21
- AC50 [2]: inconclusive: 4.96 µM

SMILES: OCC(CO)(CO)CO
- outcome [1]: inactive
- outcome [7]: inactive

SMILES: CCOc1ccc2[nH]cc(C(=O)NCc3ccccc3)c(=O)c2n1
- outcome [14]: inactive

SMILES: CCc1c(C(=O)NN2CCCCC2)nn(-c2ccc(Cl)cc2Cl)c1-c1ccc(Br)cc1
- outcome [16]: inactive

SMILES: CCOC(=O)COc1ccc2c(c1)CC(NCC(O)c1cccc(Cl)c1)CC2 (stereo not given)
- outcome [16]: inactive
- AC50 [17]: active: 21.5 µM

SMILES: O=C(O)Cc1cc(I)c(Oc2cc(I)c(O)c(I)c2)c(I)c1
- AC50 [1]: inconclusive: 16.8 µM
- AC50 [7]: inconclusive: 0.246 µM

SMILES: C1CN(SSN2CCOCC2)CCO1
- AC50 [7]: inconclusive: 6.25 µM

SMILES: O=C(c1ccc(OCCN2CCCCC2)cc1)c1c(-c2ccc(O)cc2)sc2cc(O)ccc12
- outcome [14]: inactive
- outcome [7]: inactive

SMILES: C[C@]12C[C@H](O)[C@H]3[C@@H](CCC4=CC(=O)CC[C@@]43C)[C@@H]1CC[C@@H]2C(=O)CO
- AC50 [18]: inconclusive: 1.33 µM

SMILES: CCCOC(=O)c1ccc(O)cc1
- AC50 [2]: inconclusive: 0.382 µM

SMILES: CCCOc1ccc(S(=O)(=O)N2CCN(CC)CC2)cc1-c1nc2c(CC)n(Cc3ccccn3)nc2c(=O)[nH]1
- outcome [2]: inactive

SMILES: CN(C)c1ccc(C(=C2C=CC(=[N+](C)C)C=C2)c2ccc(N(C)C)cc2)cc1
- AC50 [1]: inconclusive: 0.611 µM
- AC50 [5]: active: 5.44 µM

SMILES: CC(=O)NC1(c2cccc(F)c2)CCN(CC[C@@]2(c3ccc(Cl)c(Cl)c3)CN(c3ccccc3)C(=O)CO2)CC1
- AC50 [12]: active: 4.88 µM
- AC50 [11]: inconclusive: 20.8 µM

SMILES: CCCCOC(=O)[C@@H](C)Oc1ccc(Oc2ccc(C(F)(F)F)cn2)cc1
- AC50 [12]: inconclusive: 25 µM
